Shown are results outside the selection of hits, which stands elsewhere.
System: Vero E6 infected with SARS-CoV-2
Experiment: inhibition of SARS-CoV-2 cytopathic effect; higher = more antiviral protection, active = above 15
Settings: 48 h

Measured: inhibition of SARS-CoV-2 cytopathic effect

Oc1cc2c(c(Cl)c1O)CCNCC2c1ccccc1 (stereo not given)
inactive: 1 nM 0.35% | 8.33 nM 0.05% | 100 nM 0.33% | 833.33 nM -2.1% | 10000 nM -1.13%

From the supplement of paper PMC13380429
